# PubChem BioAssay AID493014 (National Center for Advancing Translational Sciences (NCATS), 2011)
# The campaign covered roughly 340,000 compounds. About 170 (0.05%) were called active. Inconclusive results, whose numbers are uncertain, are shown with a selection of clear calls. Calls come from the whole dose curve; as a rule, active = well fitted inhibition curve with a large enough effect in the signal ratio, with a control signal flat (not every such curve was filed as active); inconclusive = small, poorly fitted or top-dose-only effect, or effect the other way, or a change in a side signal; inactive = flat fitted curve, though single readings scatter; the % refers to the signal ratio. Where the call is inconclusive, the potency comes from a doubtful curve fit.
# Test: qHTS Assay to Find Inhibitors of Chronic Active B-Cell Receptor Signaling;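 for activity change, negative = inhibition: plate controls were basal doxycycline-induced cells for no effect and cells given 10 µM MG132 for full effect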
# Conditions: ABC-DLBCL IkBa-CBG/CBR reporter, luminescence ratio (green luciferase fused to IkBa over red control in TMD8 lymphoma cells), 4 h; activity change, negative = inhibition: at 46.1 µM (top of the series) unless noted
# Summary of the method: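 Cell line TMD8 (human ABC DLBCL), stably expressing tet-inducible CBG68-IkBa fusion and CBR; IMDM/0.5% FBS; cpd up to 46 uM; dox induction, 4 h, 37C/5% CO2; dual luminescence; green/red ratio; MG132 control.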
# Potency is the fitted concentration of half-maximal effect.
SMILES,Potency,"activity change, negative = inhibition"
CC(C)NC(=O)NC(=O)COC(=O)c1c2c(nc3ccccc13)CCC2,"inconclusive: 14.1 µM [falling, partial curve, poor fit]",
CC(C)c1ccc(/C=C/C(=O)N2CCOCC2)cc1,,inconclusive: -1.47%
COc1ccc(-n2c(-c3ccccc3)cc3c2CCCC3=O)cc1,"inconclusive: 35.5 µM [falling, partial curve, poor fit]",
O=C(NC(=S)NC(CO)Cc1ccccc1)c1ccc(F)cc1 (centres undefined),"inconclusive: 17.8 µM [falling, single point]",
O=C(Nc1nccs1)C(=O)c1c[nH]c2ccccc12,"inconclusive: 6.51 µM [falling, single point]",
CCCCn1nc(NC(=O)COC)c2cc3cc(OC)ccc3nc21,,inconclusive: 6.58%
COc1cccc(N2CCN(C(=O)C3CCCN(c4ncnc5c4nc4n5CCCCC4)C3)CC2)c1 (centres undefined),,inconclusive: -2.95%
O=C(COc1ccccc1)Nc1ccc(Cl)cn1,,inconclusive: -10.9%
O=C(Nc1nnc(-c2ccccc2F)s1)C1CCCO1 (centres undefined),"inconclusive: 23.1 µM [falling, partial curve]",
COc1ccccc1-n1c(CNc2c(C)cccc2C)nnc1SCC(=O)N1CCOCC1,"inconclusive: 3.66 µM [falling, full curve]",
Cc1[nH]n(C(N)=S)c(=O)c1N=Nc1cc(-c2ccc(Br)cc2)[nH]n1,,inconclusive: -1.04%
COc1ccccc1/C=C/C(=O)NC1CC2CCC1C2 (centres undefined),,inconclusive: 373%
CC(=O)c1c(N2CCOCC2)nc(=O)n(-c2ccccc2)c1C,,inactive: 10.3%
COc1cccc(/C=N/N=C(\N)c2nonc2N)c1O,,inconclusive: -0.414%
Cc1ccc(-c2c[n+](CC(=O)OCc3ccccc3)c3n2CCC3)cc1,,inactive: -1.35%
COc1ccc(CCN2CC(O)=C(c3nc4ccccc4c(=O)[nH]3)C2=N)cc1OC,,inconclusive: -1.21%
CCn1c(C)nc2cc(NC(=O)Nc3cccc(C(C)=O)c3)ccc21,,inactive: 3.96%
CC1CN(C(=O)Cn2cc(S(=O)(=O)CC(=O)N3CCOCC3)c3ccccc32)CC(C)O1 (centres undefined),,inactive: 0.288%
N#CC(C(=O)c1ccco1)c1ccccn1 (centres undefined),,inactive: 10.3%
O=C(CSc1nnnn1C1CCCCC1)NCc1cccc(C(=O)O)c1,,inconclusive: 11.2%
C/C(=N/NC(=O)CNC(=O)c1cccs1)c1ccc(Cl)cc1,,inactive: 0.421%

SMILES,Potency,"activity change, negative = inhibition"
CCc1c(C(=O)N/N=C/c2ccc(OCc3ccc(F)cc3)c(OC)c2)nnn1-c1nonc1N,"inconclusive: 0.316 µM [rising, full curve, poor fit]",
Cc1cc2oc(=O)cc(-c3ccccc3)c2c(C)c1-c1ccc(N(C)C)cc1,,inconclusive: -0.688%
Cc1ccc(C)n1-c1ccc(-c2nnco2)cc1,,inactive: 0.0535%
CN([C@@H](Cc1ccc(OS(=O)(=O)c2cccc3cnccc23)cc1)C(=O)N1CCN(c2ccccc2)CC1)S(=O)(=O)c1cccc2cnccc12,,inconclusive: -0.742%
C=CCn1c(-c2cccc(OCC)c2)n[nH]c1=S,"inconclusive: 35.5 µM [falling, single point]",
O=C(OCC(=O)N1N=C(c2ccc(Cl)cc2)CC1c1ccco1)c1ccccc1O (centres undefined),"inconclusive: 29.1 µM [falling, single point]",
O=C(NCCCN1CCCC1)c1ccc2c(Cl)c3c(nc2c1)CCCC3,"inconclusive: 12.6 µM [falling, single point]",
COc1ccc(S(=O)(=O)Nc2c(NC3CCCCC3)c3ccccc3oc2=O)cc1OC,"inconclusive: 35.5 µM [falling, single point]",
COC(=O)C1=C(C(=O)OC)C(c2ccc(OC)c(OC)c2)c2sc(=O)[nH]c2S1 (centres undefined),,inconclusive: -1.27%
Cc1cnc(C(=O)OCC(=O)c2c[nH]c3ccccc23)cn1,,inactive: -0.138%
O=C(c1cccs1)N1CCN(c2ncc(C(F)(F)F)cc2Cl)CC1,,inconclusive: 0.3%
COc1ccccc1NC(=O)CC(=O)c1cccc([N+](=O)[O-])c1,,inconclusive: -3.51%
O=C1CC(c2ccco2)CC2=C1C1c3ccccc3C(=O)N1c1ccccc1N2 (centres undefined),,inconclusive: 5.99%
CCCCn1c(N)c(NCC)c(=O)[nH]c1=O,,inactive: 2.32%
COC(=O)c1cc(OC)c(OC)cc1NC(=O)C1CCCO1 (centres undefined),,inconclusive: 20.6%
Clc1ccc(-n2ncc3c(N4CCCCCC4)ncnc32)cc1,,inconclusive: 17.3%
Cc1ccc2nc(N3CCN(C(=O)CCC(=O)O)CC3)nc(-c3ccccc3)c2c1,,inactive: -7.78%
CCc1ccc(-c2nnn(CCC#N)n2)cc1,,inconclusive: 5.43%
COc1ccccc1NC(=S)Nc1cccc(F)c1,"inconclusive: 29.1 µM [falling, single point]",
N#C/C(=C\c1ccncc1)c1nc2ccccc2[nH]1,"inconclusive: 35.5 µM [falling, single point]",
C[C@@H]1C(c2ccc(F)cc2)=NN(c2ccc(Br)cc2)[C@H]1C(=O)N1CCOC1=O,,inconclusive: -9.27%

SMILES,Potency,"activity change, negative = inhibition"
O=C(Cc1cccs1)Nc1nnc(-c2ccc(F)cc2)s1,"inconclusive: 31.6 µM [falling, partial curve]",
O=C(O)C1=CC(=C(c2ccc(O)c(C(=O)O)c2)c2ccc(O)c(C(=O)O)c2)C=CC1=O,"inconclusive: 29.1 µM [falling, single point]",
O=C(NC1CCCC1)c1cc(-c2ccccc2)on1,"inconclusive: 3.98 µM [rising, full curve, poor fit]",
O=C(Cn1c(-c2cncs2)nc2ccccc21)NCc1ccccc1,,inactive: -18.6%
CCOc1ccc(-c2nnc(-c3ccco3)o2)cc1OCC,,inconclusive: 6.99%
CC(=O)Nc1ccccc1NC(=O)C/C(C)=N/NC(=O)C(=O)Nc1cccc(Cl)c1C,,inconclusive: -15.5%
COc1ccc(OCCSc2nnc(Cc3cccc4ccccc34)n2N)cc1,,inconclusive: -6.32%
COc1ccc(N=Nc2nc(-c3ccccc3)c(-c3ccccc3)[nH]2)cc1,,inactive: 0.411%
CCOC(=O)c1cc(-c2ccc(F)cc2)n(CCC(=O)NCc2ccccc2OC)c1C,,inactive: -1.93%
Cc1onc(-c2ccccc2)c1C(=O)Nc1ccc(N2CCOCC2)cc1,,inconclusive: -0.244%
O/C=c1\ccc2cccc3nc(C(F)(F)F)nc1c23,,inactive: 4.36%
CCOC(=O)c1cnc2c(-c3ccc(Cl)cc3)cnn2c1C,,inconclusive: 12.5%
COCc1cc(C)n(CC(=O)OC)c(=O)c1C#N,,inconclusive: 6.36%
CC(C)(CN1CCN(C(c2ccccc2)c2ccccc2)CC1)NS(=O)(=O)c1ccccc1,,inactive: 6.84%
CCN1CCN(CCCOc2ccccc2-c2ccccc2)CC1,,inconclusive: -19.9%
O=c1[nH]c(CSc2ncc(-c3ccc(F)cc3)n2Cc2ccco2)nc2ccccc12,,inconclusive: -3.15%
Cc1cccc(NCC(=O)N/N=C\c2ccc[nH]2)c1,,inconclusive: 5.29%
CCOc1ccc(C(C)=O)cc1COC(=O)c1ccccc1C(=O)N(C)Cc1ccccc1,,inconclusive: -25.4%
CC(C)[C@H]1CN=C2N(CCNC(=O)CCC3CCCCC3)[C@H](Cc3ccc(O)cc3)CN21,,inconclusive: -6.55%
O=c1[nH]ncc2c3ccccc3n(Cc3ccccc3F)c12,,inactive: -1.91%
COc1ccc(OCCC(=O)N2CCCCC2)cc1,"inconclusive: 23.1 µM [falling, single point]",

SMILES,Potency,"activity change, negative = inhibition"
C=CCNc1oc(-c2cccc(F)c2)nc1C#N,"inconclusive: 16.4 µM [falling, partial curve, poor fit]",
CCc1ccccc1OCC(=O)Nc1cc(S(=O)(=O)N2CCOCC2)ccc1N1CCCCC1,,inconclusive: -0.351%
CN(CC(=O)Nc1cccc(F)c1)C(=O)c1ccccc1Cc1ccccc1,,inactive: 6.28%
Cc1ccc2c(c1)C(=C(C#N)C#N)C(=O)N2CCN1CCOCC1,,inconclusive: -8.6%
CCCSc1sc(C(=O)OC)c(-c2cccs2)c1C#N,,inconclusive: 23.7%
COc1ccc(Cl)cc1C(=O)NC(=S)Nc1ccccc1N1CCOCC1,,inconclusive: -11.3%
CCCn1nc(C(=O)Nc2ccc(N3CCOCC3)cc2)c2ccccc2c1=O,,inactive: 4.43%
COc1ccc(-c2cc(C(=O)N3CCN(c4ccc(F)cc4)CC3)no2)cc1OC,"inconclusive: 28.2 µM [falling, single point]",
C/C(=N\NC(=S)Nc1ccccc1C)c1cc2ccccc2o1,,inconclusive: -26.2%
O=C(O)c1ccc(-c2nc3ccccc3[nH]2)cc1,,inconclusive: -8.2%
O=C(Nc1nnc(-c2ccco2)o1)C1CC1,,inactive: 6.84%
CN(C(=O)c1cccc(C#N)c1)c1nnc(-c2cnccn2)s1,,inconclusive: -0.595%
COc1ccc(CCNC(=O)CC(c2ccccc2)c2cccc(C)c2O)cc1OC (centres undefined),,inactive: 3.73%
COC(=O)/C(=C\c1ccc([N+](=O)[O-])o1)NC(=O)c1ccccc1,,inactive: 11.3%
O=C(Nc1nnc(C2=COCCO2)o1)c1ccc([N+](=O)[O-])cc1,,inactive: 2.99%
CC(C)c1nc(=S)n(-c2ccccc2)[nH]1,,inconclusive: -0.0389%
CCOC(=O)c1c(CC(C)C)csc1/N=C/C1C(=O)CCCC1=O,,inconclusive: 3.33%
COC(=O)c1cc(Cl)c(NC(=O)c2cc(OC)c(OC)c(OC)c2)cc1OC,,inconclusive: -1.49%
COc1ccc(Nc2nc(-c3sc(N)nc3C)cs2)cc1,"inconclusive: 16.4 µM [falling, partial curve, poor fit]",
O=C(NCCc1ccccc1)C1CCC(=O)N1C1CCCC1 (centres undefined),,inactive: 3.83%
COc1ccc(/C=C2\CCc3ccccc3C2=O)c(OC)c1OC,"inconclusive: 20 µM [falling, single point]",

# Part of the list above, as tab-separated lines.
SMILES	Potency	activity change, negative = inhibition
CC(C)c1ccc(/C=C/C(=O)N2CCOCC2)cc1		inconclusive: -1.47%
O=C(OCC(=O)N1N=C(c2ccc(Cl)cc2)CC1c1ccco1)c1ccccc1O (centres undefined)	inconclusive: 29.1 µM [falling, single point]	
O=C(O)c1ccc(-c2nc3ccccc3[nH]2)cc1		inconclusive: -8.2%
O=C(NCCc1ccccc1)C1CCC(=O)N1C1CCCC1 (centres undefined)		inactive: 3.83%
